The source of these data is publication PMC8031463.

This experiment addresses T1, 4-myc-Cerulean-AVR1 (Gal4 binding domain fusion) (Phytophthora infestans) (UniProt D0NVB5).
T1 sequence: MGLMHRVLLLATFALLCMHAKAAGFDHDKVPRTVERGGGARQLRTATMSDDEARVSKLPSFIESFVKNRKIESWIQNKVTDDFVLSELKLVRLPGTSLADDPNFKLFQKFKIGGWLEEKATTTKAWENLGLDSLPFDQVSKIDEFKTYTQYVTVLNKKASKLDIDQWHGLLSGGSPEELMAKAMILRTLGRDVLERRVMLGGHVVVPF
Put plainly: two-hybrid.

No constants are given. Whether binding was seen depends on the method and setting. A result given as binding can be weak or reduced; the word gives no strength. Sequences can lack the tags named with a protein.

In the case of “Physcomitrium patens Sec5b (Gal4 activation domain fusion)”, the binding result is “binds”.
The value for “Physcomitrium patens Sec5d (Gal4 activation domain fusion)” was “binds”.
